Results are given in words; binding and its absence hold for the method and conditions named. In cells and extracts the contact can be indirect. Some binding calls cover weakened binding; strength is not graded here.
Assays:
[1] = target: MUC1* growth factor receptor (Homo sapiens (Human)) (UniProt P15941); assay: pull-down assays, ELISAs and nanoparticle binding experiments
[2] = target: MUC1* growth factor receptor (Homo sapiens (Human)) (UniProt P15941); assay: co-immunoprecipitation with Ab-5, Western blot (FIG. 22, FIG. 23)
[3] = target: MUC1* growth factor receptor (Homo sapiens (Human)) (UniProt P15941); assay: co-immunoprecipitation with Ab-5 from T47D and human stem cell extracts, Western blot
[4] = target: MUC1* growth factor receptor (Homo sapiens (Human)) (UniProt P15941); assay: co-immunoprecipitation from iPS7 and HES3 stem cell extracts with Ab-5, Western blot (FIG. 23)
[5] = target: MUC1* growth factor receptor (Homo sapiens (Human)) (UniProt P15941); assay: co-immunoprecipitation from T47D cell extracts with anti-MUC1 cytoplasmic tail antibody Ab-5, Western blot (FIG. 22)

Amino acid sequences for entries named in this document (tags omitted). A change or cut given only in a name is not applied to a line headed by its entry.
UniProt P15941: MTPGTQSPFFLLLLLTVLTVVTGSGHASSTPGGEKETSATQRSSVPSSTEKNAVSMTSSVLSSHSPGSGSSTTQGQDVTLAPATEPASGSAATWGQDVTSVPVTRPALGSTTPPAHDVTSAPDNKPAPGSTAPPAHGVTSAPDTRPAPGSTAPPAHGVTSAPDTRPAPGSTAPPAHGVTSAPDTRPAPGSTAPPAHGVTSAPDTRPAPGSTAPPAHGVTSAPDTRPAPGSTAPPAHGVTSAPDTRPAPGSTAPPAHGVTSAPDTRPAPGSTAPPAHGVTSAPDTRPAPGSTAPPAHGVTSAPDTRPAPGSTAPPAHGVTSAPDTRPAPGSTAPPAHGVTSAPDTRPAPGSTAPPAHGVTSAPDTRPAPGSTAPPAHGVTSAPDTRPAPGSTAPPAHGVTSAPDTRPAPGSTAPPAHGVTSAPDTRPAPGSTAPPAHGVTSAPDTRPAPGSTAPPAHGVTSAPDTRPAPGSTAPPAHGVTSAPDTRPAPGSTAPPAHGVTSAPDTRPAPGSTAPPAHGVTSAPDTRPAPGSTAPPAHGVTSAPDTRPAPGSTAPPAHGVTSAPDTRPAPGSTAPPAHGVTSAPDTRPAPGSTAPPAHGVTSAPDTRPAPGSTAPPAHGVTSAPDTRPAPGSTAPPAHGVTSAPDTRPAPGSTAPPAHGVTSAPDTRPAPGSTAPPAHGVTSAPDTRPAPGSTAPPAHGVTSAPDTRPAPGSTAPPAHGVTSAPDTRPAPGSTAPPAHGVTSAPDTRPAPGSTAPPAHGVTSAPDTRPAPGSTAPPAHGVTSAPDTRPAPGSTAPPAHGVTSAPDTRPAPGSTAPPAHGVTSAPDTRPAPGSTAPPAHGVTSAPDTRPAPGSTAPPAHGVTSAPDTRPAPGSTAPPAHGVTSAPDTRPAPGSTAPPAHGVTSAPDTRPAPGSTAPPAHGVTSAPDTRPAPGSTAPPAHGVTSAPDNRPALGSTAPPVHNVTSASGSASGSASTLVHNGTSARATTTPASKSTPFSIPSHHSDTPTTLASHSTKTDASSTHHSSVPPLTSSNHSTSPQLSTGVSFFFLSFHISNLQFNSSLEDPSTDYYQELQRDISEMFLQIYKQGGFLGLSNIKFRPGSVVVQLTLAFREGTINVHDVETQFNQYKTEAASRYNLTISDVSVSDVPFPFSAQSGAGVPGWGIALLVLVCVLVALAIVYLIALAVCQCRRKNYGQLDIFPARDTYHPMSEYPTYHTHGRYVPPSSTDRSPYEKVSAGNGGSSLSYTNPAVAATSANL
UniProt Q9Y5B8: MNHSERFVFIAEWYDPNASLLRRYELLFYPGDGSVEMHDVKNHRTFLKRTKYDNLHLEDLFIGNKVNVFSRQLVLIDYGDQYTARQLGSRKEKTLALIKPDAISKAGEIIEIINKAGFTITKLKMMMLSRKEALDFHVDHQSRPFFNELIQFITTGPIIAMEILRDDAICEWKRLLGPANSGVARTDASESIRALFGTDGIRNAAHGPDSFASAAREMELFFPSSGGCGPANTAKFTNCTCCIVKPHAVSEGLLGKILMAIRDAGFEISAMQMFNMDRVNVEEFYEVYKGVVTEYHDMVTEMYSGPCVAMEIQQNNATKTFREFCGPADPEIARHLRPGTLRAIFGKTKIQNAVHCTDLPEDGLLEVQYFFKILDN

| Substance | binding [1] | binding [2] | binding [3] | binding [4] | binding [5] |
| --- | --- | --- | --- | --- | --- |
| full-length human NME7 (from UniProt Q9Y5B8 1-376) | binds | – | – | – | – |
| human NME7-X1 (from UniProt Q9Y5B8 125-376) (ligand) | – | binds | binds | binds | binds |
| recombinant human NME7AB (from UniProt Q9Y5B8 92-376) (ligand) | binds | – | – | – | – |

— patent publication US12415868 (MINERVA BIOTECHNOLOGIES, dated 2025)
